Here are results for one substance from article PMC6092624.

In the assay the target is T1, endogenous RBP2 of mouse brain (mouse (endogenous in brain)) (UniProt Q80U40).
T1 sequence: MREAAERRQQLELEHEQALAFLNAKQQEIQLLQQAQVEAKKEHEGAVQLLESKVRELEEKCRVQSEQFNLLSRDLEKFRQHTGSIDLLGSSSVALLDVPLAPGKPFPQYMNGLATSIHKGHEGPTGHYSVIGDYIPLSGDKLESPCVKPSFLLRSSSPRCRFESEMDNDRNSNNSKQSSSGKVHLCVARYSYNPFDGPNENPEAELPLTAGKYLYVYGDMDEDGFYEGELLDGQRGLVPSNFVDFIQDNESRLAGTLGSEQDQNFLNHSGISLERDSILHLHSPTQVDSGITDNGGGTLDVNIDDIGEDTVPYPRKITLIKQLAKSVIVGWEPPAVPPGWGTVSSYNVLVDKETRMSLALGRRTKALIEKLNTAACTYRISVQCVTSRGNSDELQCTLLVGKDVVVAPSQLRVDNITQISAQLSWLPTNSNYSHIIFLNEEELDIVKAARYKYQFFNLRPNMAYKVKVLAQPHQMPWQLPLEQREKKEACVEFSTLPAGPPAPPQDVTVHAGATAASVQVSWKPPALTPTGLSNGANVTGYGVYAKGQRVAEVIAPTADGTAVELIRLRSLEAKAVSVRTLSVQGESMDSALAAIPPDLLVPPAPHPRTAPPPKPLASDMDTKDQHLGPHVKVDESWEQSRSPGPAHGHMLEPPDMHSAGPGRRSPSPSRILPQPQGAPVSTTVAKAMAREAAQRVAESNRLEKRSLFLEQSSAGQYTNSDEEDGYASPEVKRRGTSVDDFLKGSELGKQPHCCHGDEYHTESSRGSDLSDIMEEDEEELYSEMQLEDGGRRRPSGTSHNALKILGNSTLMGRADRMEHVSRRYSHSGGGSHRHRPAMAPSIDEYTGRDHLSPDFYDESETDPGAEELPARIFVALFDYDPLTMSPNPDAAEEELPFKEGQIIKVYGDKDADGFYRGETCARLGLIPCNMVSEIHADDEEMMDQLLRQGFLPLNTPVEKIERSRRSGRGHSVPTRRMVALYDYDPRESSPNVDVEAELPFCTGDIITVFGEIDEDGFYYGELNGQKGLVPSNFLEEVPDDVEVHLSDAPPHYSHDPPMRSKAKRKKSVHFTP
Put plainly: co-IP; endogenous proteins of mouse brain homogenates solubilized with Triton X-100 (1%), NP-40 (1%) or SDS (0.3%); immunoprecipitation with antibodies to RBP2 or RIMs; preimmune serum as control.

No constants are given. Whether binding was seen depends on the method and setting. Binding seen in cells or lysates may run through a third protein.

On to endogenous syntaxin-1 of mouse brain, for which the binding entry is “no binding”.
